The assay can be described thus: qHTS Assay for Modulators of Lamin A Splicing. The note with it: HeLa LMNA splicing GFP/RFP minigene ratio, 48 h. In outline:
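S3 HeLa cells stably expressing lamin A-EGFP splicing minigene plus DsRed2, 600 cells/well, 48 h compound exposure at 37C. Laser-scanning cytometry; analysed as GFP (500-530 nm)/RFP (575-640 nm) total intensity ratio; 0.5% DMSO vehicle.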
Background: qHTS replaces the single test concentration by a dilution series.

[1] abbreviates: measured here: RFP viability control channel.
Where [2] appears, read: measured here: GFP splicing reporter channel.

This is one part of the list. The main result of the screen is listed elsewhere. These columns were measured beside it and carry no call. Compounds called inactive in the main read-out are mostly missing here. Potencies come from curve fits of mixed quality, noted in brackets.

Regarding `CCSc1ccc2nnc(-c3cccc(F)c3)n2n1`, the AC50 (commonly the concentration giving half of the maximal activity seen) under setting [1] was 0.631 µM [falling, full curve].

Regarding `Cc1cccc(C)c1NC(=O)c1sccc1SCc1cccc(C(F)(F)F)c1`, under setting [1], the AC50 is 11.2 µM [falling, partial curve, poor fit].

Turning to `CCn1c(COc2ccccc2C)nnc1SCC(=O)NC1CCCC1`, the AC50 under setting [2] is 25.1 µM [rising, single point].

Regarding `N#Cc1ccccc1Cn1cc(/C=C/[N+](=O)[O-])c2ccccc21`, the AC50 under setting [1] was 25.1 µM [falling, single point].

Consider `COc1ccc(CCC(=O)Nc2ccc(C)c(S(=O)(=O)N(C)C)c2)cc1OC`, for which the AC50 was 2.51 µM [rising, full curve] under setting [2] and 3.16 µM [rising, full curve] under setting [1].

For the compound `COc1ccc(C)cc1Nc1nnc(C)c(=O)[nH]1`, under setting [1], the AC50 was 1.78 µM [rising, single point].

For `O=S(Cc1ccc(Br)cc1)Cc1nnc(SCc2ccc(Br)cc2)n1-c1ccccc1` (centres undefined), the AC50 is 1.41 µM [rising, full curve, poor fit] under setting [2] and 2.82 µM [rising, full curve] under setting [1].

Turning to `COc1cc([N+](=O)[O-])ccc1Nc1nc(C)cc(C)n1`, the AC50 under setting [2] was 1.26 µM [rising, partial curve] and the AC50 under setting [1] was 0.355 µM [rising, partial curve, poor fit].

With `Cc1nc(NCCc2ccccc2)c(C#N)c(C)c1[N+](=O)[O-]`, under setting [1], the concentration at half-maximal activity (AC50) is 35.5 µM [falling, single point].

In the case of `O=C(Nc1nc2ccccc2n1CCN1CCOCC1)c1cn(-c2ccccc2)nc1-c1ccccc1`, the AC50 by setting is: under setting [2], 35.5 µM [rising, single point]; under setting [1], 35.5 µM [rising, single point].

In the case of `COc1ccc(OC)c(C(=O)COC(=O)c2cccnc2Cl)c1`, the AC50 under setting [1] is 0.1 µM [rising, partial curve].

Consider `Cc1cc(C)n(CC(O)Cn2c3ccc(Br)cc3c3cc(Br)ccc32)c(=O)n1` (centres undefined), for which the AC50 is 35.5 µM [falling, single point] under setting [2] and 22.4 µM [falling, single point] under setting [1].

On to `O=C(NC1CCCCC1)c1ccc2c(=O)n(CC3CCCO3)c(=O)[nH]c2c1` (centres undefined), for which the AC50 under setting [2] is 10 µM [rising, partial curve, poor fit] and the AC50 under setting [1] is 12.6 µM [rising, single point].

Turning to `Clc1ccc2nc(N3CCNCC3)nc(-c3ccccc3)c2c1`, the AC50 under setting [2] is 25.1 µM [falling, single point] and the AC50 under setting [1] is 35.5 µM [falling, single point].

On to `CCOc1cccc2cc(C(=O)NCCC3=CCCCC3)c(=O)oc12`, for which the AC50 under setting [2] was 5.62 µM [rising, partial curve, poor fit].

As to `COc1cccc(N2CC(NC(=O)c3ccco3)CC2=O)c1` (centres undefined), the AC50 reads like this: under setting [2], 2.24 µM [falling, full curve, poor fit]; under setting [1], 0.00316 µM [falling, full curve, poor fit].

As for `CCOC(=O)C1=C(O)/C(=C/c2ccccn2)SC1=Nc1ccc(Cl)cc1`, the AC50 under setting [2] was 12.6 µM [falling, partial curve, poor fit].

Consider `CCOc1ccccc1NC(=O)Cn1cnc2c(cnn2-c2ccc(C)c(C)c2)c1=O`, for which, under setting [2], the AC50 is 0.794 µM [rising, single point].

As for `CCOC(=O)/C=C1\NC(C)(C)Cc2cc(OC)c(OC)cc21`, the AC50 under setting [2] was 0.02 µM [falling, full curve, poor fit] and the AC50 under setting [1] was 0.0316 µM [falling, full curve].

`CCn1c(=O)[nH]c2cc(Cl)c(Cl)cc21`: the AC50 under setting [2] was 0.794 µM [falling, full curve] and the AC50 under setting [1] is 0.0891 µM [falling, full curve].

As for `CCCCCCOc1ccc(C2C(=O)N(C3CCCCC3)CC(=O)N2CCC)cc1` (centres undefined), under setting [2], the AC50 was 0.0398 µM [falling, full curve, poor fit].

For the compound `Cc1ccc(NC(=O)C(C)c2cccc(C(=O)c3ccccc3)c2)cc1` (centres undefined), the AC50 reads like this: under setting [2], 2.82 µM [rising, full curve]; under setting [1], 8.91 µM [rising, partial curve].

As for `CCOc1[nH]n(-c2ccccc2)c(=O)c1C=Nc1ccc(C)cc1`, under setting [1], the AC50 was 0.158 µM [falling, single point].

Regarding `CCOC(=O)Nc1ccc(S(=O)(=O)NC2CCCCC2)cc1`, the AC50 under setting [1] was 35.5 µM [rising, single point].

Consider `O=C(Nc1ccc(N2CCOCC2)cc1)c1cc2c(s1)CCCCC2`, for which the AC50 under setting [1] was 5.01 µM [rising, full curve, poor fit].

On to `Cc1cccc(N2CCN(C(=O)Nc3cn(CC(C)C)c(=O)c4ccccc34)CC2)c1C`, for which the AC50 under setting [2] is 12.6 µM [falling, single point].

Take `COc1ccccc1Cc1nc2ccccc2nc1SCC(=O)N(C)c1ccc(F)cc1`: the AC50 under setting [1] was 12.6 µM [rising, single point].

With `COc1ccc(/C=C/C(=O)NC(=S)NNC(=O)c2ccco2)cc1`, the AC50 under setting [1] is 8.91 µM [rising, partial curve].

Turning to `COc1ccc(NC(=O)CSc2nnc(NC(=O)Nc3ccc(OC)cc3)s2)cc1`, the AC50 under setting [1] was 5.62 µM [rising, single point].

As for `Cc1cccc(N2CCN(C(=O)c3cccc(S(=O)(=O)N4CCc5ccccc5C4)c3)CC2C)c1` (centres undefined), the AC50 by setting is: under setting [2], 12.6 µM [rising, partial curve, poor fit]; under setting [1], 10 µM [rising, partial curve].

In the case of `S=C(NCCc1ccccc1)NC1CC1`, the concentration at half-maximal activity (AC50) under setting [2] was 0.355 µM [rising, single point].

With `O=C(Nc1cccc(S(=O)(=O)N2CCOCC2)c1)[C@@H]1CCCN1S(=O)(=O)c1ccc(Cl)cc1`, the AC50 under setting [1] is 11.2 µM [rising, single point].

In the case of `COc1cccc(Nc2sc(C(=O)c3ccc(F)cc3)c(N)c2C(=O)NCc2ccc(Cl)cc2)c1`, the AC50 is 31.6 µM [rising, single point] under setting [2] and 20 µM [rising, single point] under setting [1].

Regarding `CCOC(=O)c1c(-c2ccccc2)n(C)c2ccc(O)cc12`, the half-maximal activity concentration (AC50) under setting [1] was 20 µM [rising, single point].

Regarding `COc1ccc(-c2ccc(NS(=O)(=O)c3ccc(C(C)=O)cc3)cc2)nn1`, the AC50 under setting [2] is 0.00631 µM [falling, full curve, poor fit].

With `O=C(Cc1ccccc1)Nn1c(O)c(/C=C2\C=Nc3ccccc32)sc1=S`, the AC50 under setting [1] was 25.1 µM [rising, single point].
